Experiment: SRS microscopy detection sensitivity

Compound: OCc1ccc(C#CC#CC#CC#Cc2ccccc2)cc1 [Carbow 4-yne]
- sensitivity relative to previous SRS detection of a single alkyne tag: ~500 times
- SRS detection sensitivity (signal-to-noise ratio of 1, 1-ms time constant): 630 nM
